Reference: article PMC7916480, “Functional and Structural Characterization of Nucleic Acid Ligands That Bind to Activated Coagulation Factor XIII”

Biological target: fibrinogen (Hemocomplettan P)
Assay: microtiter plate binding assay (bound enzyme read by fluorogenic substrate); fibrinogen (3 uM) coated on maxisorb plates; FXIIIa (25 nM), pre-incubated 30 min at RT with aptamers (1-316 nM), added in binding buffer (D-PBS pH 7.4 with 0.9 mM CaCl2, 0.5 mM MgCl2, 0.1% BSA) for 30 min; washed; bound FXIIIa quantified with fluorogenic substrate; both purified

binding: binds
B1: activated coagulation factor XIII (FXIIIa), recombinant human (enzyme, UniProt P00488 39-732)
chain: GVNLQEFLNVTSVHLFKERWDTNKVDHHTDKYENNKLIVRRGQSFYVQIDFSRPYDPRRDLFRVEYVIGRYPQENKGTYIPVPIVSELQSGKWGAKIVMREDRSVRLSIQSSPKCIVGKFRMYVAVWTPYGVLRTSRNPETDTYILFNPWCEDDAVYLDNEKEREEYVLNDIGVIFYGEVNDIKTRSWSYGQFEDGILDTCLYVMDRAQMDLSGRGNPIKVSRVGSAMVNAKDDEGVLVGSWDNIYAYGVPPSAWTGSVDILLEYRSSENPVRYGQCWVFAGVFNTFLRCLGIPARIVTNYFSAHDNDANLQMDIFLEEDGNVNSKLTKDSVWNYHCWNEAWMTRPDLPVGFGGWQAVDSTPQENSDGMYRCGPASVQAIKHGHVCFQFDAPFVFAEVNSDLIYITAKKDGTHVVENVDATHIGKLIVTKQIGGDGMMDITDTYKFQEGQEEERLALETALMYGAKKPLNTEGVMKSRSNVDMDFEVENAVLGKDFKLSITFRNNSHNRYTITAYLSANITFYTGVPKAEFKKETFDVTLEPLSFKKEAVLIQAGEYMGQLLEQASLHFFVTARINETRDVLAKQKSTVLTIPEIIIKVRGTQVVGSDMTVTVEFTNPLKETLRNVWVHLDGPGVTRPMKKMFREIRPNSTVQWEEVCRPWVSGHRKLIASMSSDSLRHVYGELDVQIQRRPSM

These are yes or no findings as the source states them, for the method shown. A result given as binding can be weak or reduced; the word gives no strength.
